{"source": "PubChem BioAssay AID2685", "about": "(National Center for Advancing Translational Sciences (NCATS), 2010)", "experiment": "qHTS Assay for Lipid Storage Modulators in Drosophila S3 Cells;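 as to cell number change: cells counted by Cell Tracker Red CMTPX staining in the red channel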", "details": "BODIPY lipid droplet fluorescence, 18-24 h; for cell number change: measured here: cell count max response, cells fed with added oleic acid", "how_it_was_run": "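Drosophila S3 cells got compounds at several concentrations plus oleic acid (400 uM solution). Laser-scanning cytometry with 488 nm excitation read lipid droplets at 500-530 nm and cells at 575-640 nm. Percent activity was relative to 20 uM Triacsin C.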", "key": {"[1]": {"details": "measured here: cell number channel AC50, cells fed with added oleic acid"}, "[2]": {"details": "measured here: lipid fluorescence (Fed channel) AC50, cells fed with added oleic acid"}}, "note": "Some of the results follow. The main result of the screen is listed elsewhere. These columns were measured beside it and carry no call. Compounds called inactive in the main read-out are mostly missing here. Words in brackets tell the shape of the fitted curve; partial curves, single points and poor fits give uncertain potencies."}
{"smiles": "O=C(N/N=C/C1=C(N2CCOCC2)C(=C\\c2ccccc2)/CC1)Nc1ccccc1", "values": [{"measurement": "cell number change", "result": 8.01, "unit": "%"}, {"measurement": "AC50", "setting": "[1]", "result": "3.66 µM [rising, single point]"}, {"measurement": "AC50", "setting": "[2]", "result": "5.8 µM [rising, partial curve]"}]}
{"smiles": "Cc1cccc(C(=O)Nc2ccc(C(=O)/C=C/c3cccs3)cc2)c1", "values": [{"measurement": "cell number change", "result": -38.9, "unit": "%"}, {"measurement": "AC50", "setting": "[1]", "result": "13 µM [falling, partial curve]"}, {"measurement": "AC50", "setting": "[2]", "result": "18.4 µM [falling, single point]"}]}
{"smiles": "Cc1ccc(C(=O)OCN2C(=O)c3ccccc3C2=O)cc1S(=O)(=O)N1CCOCC1", "values": [{"measurement": "cell number change", "result": -32.5, "unit": "%"}, {"measurement": "AC50", "setting": "[1]", "result": "29.1 µM [falling, single point]"}, {"measurement": "AC50", "setting": "[2]", "result": "29.1 µM [falling, single point]"}]}
{"smiles": "O=C(CSc1nnc(-c2cccnc2)n1Cc1ccco1)c1ccc(Cl)c(Cl)c1", "values": [{"measurement": "cell number change", "result": -10.6, "unit": "%"}, {"measurement": "AC50", "setting": "[2]", "result": "2.06 µM [rising, partial curve]"}]}
{"smiles": "CCOc1ccc(NC(=O)CSCc2cnn(-c3ccccc3)c2-n2cccc2)cc1", "values": [{"measurement": "AC50", "setting": "[2]", "result": "0.651 µM [rising, single point]"}]}
{"smiles": "CCN(CC)S(=O)(=O)c1ccc(NC(=O)COC(=O)c2ccc(NC(=O)CC#N)cc2)cc1", "values": [{"measurement": "cell number change", "result": 5.25, "unit": "%"}, {"measurement": "AC50", "setting": "[1]", "result": "0.13 µM [falling, single point]"}, {"measurement": "AC50", "setting": "[2]", "result": "0.116 µM [falling, partial curve, poor fit]"}]}
{"smiles": "COc1cccc(OCC(=O)O/N=C(\\N)c2ccc(OC)c(OC)c2)c1", "values": [{"measurement": "cell number change", "result": 3.64, "unit": "%"}, {"measurement": "AC50", "setting": "[2]", "result": "25.9 µM [rising, partial curve, poor fit]"}]}
{"smiles": "CC(CC(=O)NC(C)c1ccc2c(c1)OCCO2)c1ccccc1", "note": "(stereo unspecified)", "values": [{"measurement": "cell number change", "result": -15.9, "unit": "%"}, {"measurement": "AC50", "setting": "[2]", "result": "0.517 µM [falling, full curve, poor fit]"}]}
{"smiles": "CCOC(=O)/C(C#N)=C1/C=CN(c2ccc(C)cc2)C=N1", "values": [{"measurement": "AC50", "setting": "[1]", "result": "1.46 µM [rising, partial curve]"}]}
{"smiles": "COc1ccc(NC(=O)C2CCCN(C(=O)Nc3ccc(F)cc3)C2)cc1OC", "note": "(stereo unspecified)", "values": [{"measurement": "cell number change", "result": -11.1, "unit": "%"}]}
{"smiles": "Cc1nn(C)c(C)c1N1C(=O)c2cccc3c(N)ccc(c23)C1=O", "values": [{"measurement": "cell number change", "result": -94, "unit": "%"}, {"measurement": "AC50", "setting": "[1]", "result": "20.6 µM [falling, single point]"}, {"measurement": "AC50", "setting": "[2]", "result": "20.6 µM [falling, partial curve]"}]}
{"smiles": "C/C(N)=C(/C#N)C(=O)CSc1nc(C2CCCCC2)n(-c2ccccc2)n1", "values": [{"measurement": "cell number change", "result": 15.4, "unit": "%"}, {"measurement": "AC50", "setting": "[1]", "result": "6.51 µM [falling, single point]"}]}
{"smiles": "COc1cc(COCC(O)CN2CCN(Cc3ccccc3)CC2)cc(OC)c1OC", "note": "(stereo unspecified)", "values": [{"measurement": "AC50", "setting": "[1]", "result": "0.82 µM [falling, single point]"}]}
{"smiles": "O=C1c2ccccc2C(=O)C1c1nccc2ccccc12", "values": [{"measurement": "cell number change", "result": -6.64, "unit": "%"}]}
{"smiles": "O=C(CN1CCCCCC1)Nc1ccc(S(=O)(=O)N2CCCCC2)cc1", "values": [{"measurement": "cell number change", "result": 0.87, "unit": "%"}, {"measurement": "AC50", "setting": "[2]", "result": "29.1 µM [rising, single point]"}]}
{"smiles": "COCCN1C(=O)/C(=C/c2ccc(N3CCCC3)cc2)SC1=S", "values": [{"measurement": "cell number change", "result": 5.71, "unit": "%"}, {"measurement": "AC50", "setting": "[2]", "result": "6.51 µM [falling, single point]"}]}
{"smiles": "COC(=O)c1sccc1NC(=O)CC1C(=O)NCCN1C(=O)Nc1ccc(OCc2ccccc2)cc1", "note": "(stereo unspecified)", "values": [{"measurement": "cell number change", "result": 22.8, "unit": "%"}, {"measurement": "AC50", "setting": "[1]", "result": "0.103 µM [rising, full curve, poor fit]"}, {"measurement": "AC50", "setting": "[2]", "result": "0.116 µM [rising, full curve, poor fit]"}]}
{"smiles": "Cc1cc(NC(=O)COn2nnc3ccc(S(C)(=O)=O)cc32)ccc1Br", "values": [{"measurement": "cell number change", "result": 12.8, "unit": "%"}, {"measurement": "AC50", "setting": "[2]", "result": "6.51 µM [rising, partial curve]"}]}
{"smiles": "Cc1ccc(NC(=O)c2ccc(Cl)c(S(=O)(=O)N3CCCC3)c2)nc1", "values": [{"measurement": "cell number change", "result": -21.9, "unit": "%"}]}
{"smiles": "O=C(Nc1cccc2ncccc12)c1ccccc1[N+](=O)[O-]", "values": [{"measurement": "cell number change", "result": -16, "unit": "%"}, {"measurement": "AC50", "setting": "[2]", "result": "29.1 µM [falling, single point]"}]}
{"smiles": "NS(=O)(=O)c1cccc(NC(=O)Cn2nc(C(=O)O)c3ccccc3c2=O)c1", "values": [{"measurement": "cell number change", "result": -10.5, "unit": "%"}]}
{"smiles": "C=CCNc1nnc(C)c2ccccc12", "values": [{"measurement": "cell number change", "result": -1.38, "unit": "%"}, {"measurement": "AC50", "setting": "[2]", "result": "2.31 µM [rising, partial curve]"}]}
{"smiles": "Cc1cccc(N2CCN(S(=O)(=O)c3ccc4c(c3)CCN4C(=O)CCC(=O)O)CC2)c1C", "values": [{"measurement": "AC50", "setting": "[2]", "result": "0.164 µM [falling, full curve, poor fit]"}]}
{"smiles": "COc1ccccc1CNCC(=O)N1CC(=O)Nc2ccccc21", "values": [{"measurement": "cell number change", "result": -3.28, "unit": "%"}]}
{"smiles": "CS(=O)(=O)N1CCC(C(=O)Nc2c(F)cccc2F)CC1", "values": [{"measurement": "cell number change", "result": 7.93, "unit": "%"}, {"measurement": "AC50", "setting": "[2]", "result": "6.51 µM [falling, single point]"}]}
{"smiles": "O=C(Nc1nc2ccccc2[nH]1)c1ccccc1[N+](=O)[O-]", "values": [{"measurement": "cell number change", "result": 21.1, "unit": "%"}, {"measurement": "AC50", "setting": "[1]", "result": "0.13 µM [rising, full curve, poor fit]"}]}
{"smiles": "CCOc1cc(C2NC(=O)c3ccccc3O2)ccc1OC(C)C", "note": "(stereo unspecified)", "values": [{"measurement": "cell number change", "result": 4.62, "unit": "%"}]}
{"smiles": "CC(C)C(NC(=O)c1ccco1)C(=O)NCC(c1ccco1)N(C)C", "note": "(stereo unspecified)", "values": [{"measurement": "cell number change", "result": 6.95, "unit": "%"}]}
{"smiles": "O=C(O)C1CCCCC1C(=O)Nc1ccccc1C(=O)N1CCN(c2ccc(F)cc2)CC1", "note": "(stereo unspecified)", "values": [{"measurement": "cell number change", "result": -16.7, "unit": "%"}, {"measurement": "AC50", "setting": "[2]", "result": "29.1 µM [rising, single point]"}]}
{"smiles": "CCOC(=O)Cc1csc(SCC(=O)N(CC(C)C)c2c(N)n(Cc3ccccc3)c(=O)[nH]c2=O)n1", "values": [{"measurement": "AC50", "setting": "[2]", "result": "18.4 µM [rising, single point]"}]}
{"smiles": "CCCCCN1CC(O)=C(c2ccccc2)C1=N", "values": [{"measurement": "cell number change", "result": 16.9, "unit": "%"}, {"measurement": "AC50", "setting": "[2]", "result": "4.61 µM [rising, partial curve]"}]}
